Results are given in words; binding and its absence hold for the method and conditions named. In cells and extracts the contact can be indirect. Here binding means that the protein was enriched with, or labelled near, the bait; the list need not be complete. For some of these results: A no says only that the protein was not detected with the bait.
Columns and labels:
[1] = molecular target: Hsp104-GFP (S. cerevisiae) (UniProt P31539); assay: affinity purification with mass spectrometry; Hsp104-GFP captured on GFP-Trap magnetic agarose (nanotrap) from gently lysed wild-type and Δrpn4 yeast cells, clogger induced with 0.5% galactose for 6 h; 1 h at 4°C; lysis buffer with 1% Nonidet P-40; hits by enrichment over a DHFR-GFP pull-down; label-free LC-MS/MS
[2] = molecular target: Hsp104-GFP (S. cerevisiae) (UniProt P31539); assay: condition: only cells expressing the DHFR control instead of the clogger; affinity purification with mass spectrometry; as a1, but cells expressed the cytosolic DHFR control instead of the clogger (no clogger)
[3] = molecular target: Hsp104-GFP (S. cerevisiae) (UniProt P31539); assay: affinity purification with mass spectrometry; Hsp104-GFP captured on GFP-Trap magnetic agarose (nanotrap) from gently lysed wild-type and Δrpn4 yeast cells, clogger induced with 0.5% galactose for 6 h; 1 h at 4°C; lysis buffer with 1% Nonidet P-40; hits by enrichment over a DHFR-GFP pull-down; label-free LC-MS/MS; remark: listed apart in the source
[4] = molecular target: Hsp104-GFP (S. cerevisiae) (UniProt P31539); assay: affinity purification with mass spectrom

Chains of the proteins cited; added tags and fusions are not shown. Lines headed by an entry give the natural chain unless they say otherwise; changes in a name come on top.
UniProt P31539: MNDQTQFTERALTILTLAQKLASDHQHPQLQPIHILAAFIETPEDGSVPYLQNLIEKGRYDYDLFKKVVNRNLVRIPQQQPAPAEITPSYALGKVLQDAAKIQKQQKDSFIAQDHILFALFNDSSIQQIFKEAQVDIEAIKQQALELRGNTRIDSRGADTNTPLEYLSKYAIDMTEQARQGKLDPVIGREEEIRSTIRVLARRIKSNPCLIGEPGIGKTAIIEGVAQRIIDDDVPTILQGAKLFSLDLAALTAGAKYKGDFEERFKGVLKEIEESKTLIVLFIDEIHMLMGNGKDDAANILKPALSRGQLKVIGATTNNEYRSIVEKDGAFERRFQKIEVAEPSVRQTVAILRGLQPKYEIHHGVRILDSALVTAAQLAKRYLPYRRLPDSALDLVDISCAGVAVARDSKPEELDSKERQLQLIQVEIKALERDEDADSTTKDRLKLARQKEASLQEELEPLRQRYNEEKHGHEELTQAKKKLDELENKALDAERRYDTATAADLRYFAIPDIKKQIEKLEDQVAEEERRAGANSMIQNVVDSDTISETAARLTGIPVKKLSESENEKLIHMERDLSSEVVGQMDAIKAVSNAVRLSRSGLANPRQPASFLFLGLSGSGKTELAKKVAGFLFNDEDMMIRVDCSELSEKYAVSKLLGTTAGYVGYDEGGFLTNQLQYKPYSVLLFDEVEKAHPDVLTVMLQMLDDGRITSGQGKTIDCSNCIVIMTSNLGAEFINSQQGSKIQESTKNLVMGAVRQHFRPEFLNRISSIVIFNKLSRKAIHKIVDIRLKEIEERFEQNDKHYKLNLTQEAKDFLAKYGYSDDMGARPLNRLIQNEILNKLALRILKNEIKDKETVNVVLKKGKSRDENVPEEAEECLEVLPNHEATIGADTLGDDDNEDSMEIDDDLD
UniProt P40513: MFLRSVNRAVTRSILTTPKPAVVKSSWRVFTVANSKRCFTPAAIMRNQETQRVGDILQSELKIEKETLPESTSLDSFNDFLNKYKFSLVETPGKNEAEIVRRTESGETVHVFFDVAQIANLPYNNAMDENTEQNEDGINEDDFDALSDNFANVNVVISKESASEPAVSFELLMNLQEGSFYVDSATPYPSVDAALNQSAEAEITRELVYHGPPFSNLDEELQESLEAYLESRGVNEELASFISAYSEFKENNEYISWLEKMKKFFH
UniProt Q01217: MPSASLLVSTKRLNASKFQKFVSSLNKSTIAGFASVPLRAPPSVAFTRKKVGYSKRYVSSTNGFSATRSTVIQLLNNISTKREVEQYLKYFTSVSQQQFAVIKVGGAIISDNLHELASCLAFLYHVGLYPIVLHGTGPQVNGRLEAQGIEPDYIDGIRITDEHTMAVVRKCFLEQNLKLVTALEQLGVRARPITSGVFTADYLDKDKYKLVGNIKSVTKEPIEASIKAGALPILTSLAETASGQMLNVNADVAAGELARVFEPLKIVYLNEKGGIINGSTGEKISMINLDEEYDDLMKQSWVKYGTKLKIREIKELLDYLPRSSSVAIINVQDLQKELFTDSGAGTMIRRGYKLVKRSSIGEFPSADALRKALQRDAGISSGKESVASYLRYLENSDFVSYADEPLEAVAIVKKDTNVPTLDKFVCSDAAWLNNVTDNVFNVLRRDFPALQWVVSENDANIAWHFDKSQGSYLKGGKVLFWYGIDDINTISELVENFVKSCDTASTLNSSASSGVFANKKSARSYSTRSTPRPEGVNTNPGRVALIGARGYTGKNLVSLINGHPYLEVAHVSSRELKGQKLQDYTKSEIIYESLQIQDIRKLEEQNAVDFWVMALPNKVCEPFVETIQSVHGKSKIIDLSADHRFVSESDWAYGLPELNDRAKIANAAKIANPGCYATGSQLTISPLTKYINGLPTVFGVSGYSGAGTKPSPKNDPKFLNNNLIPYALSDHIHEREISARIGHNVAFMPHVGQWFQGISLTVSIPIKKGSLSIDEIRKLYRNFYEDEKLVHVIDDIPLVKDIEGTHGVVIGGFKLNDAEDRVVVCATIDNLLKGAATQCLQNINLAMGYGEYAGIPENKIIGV
UniProt P00447: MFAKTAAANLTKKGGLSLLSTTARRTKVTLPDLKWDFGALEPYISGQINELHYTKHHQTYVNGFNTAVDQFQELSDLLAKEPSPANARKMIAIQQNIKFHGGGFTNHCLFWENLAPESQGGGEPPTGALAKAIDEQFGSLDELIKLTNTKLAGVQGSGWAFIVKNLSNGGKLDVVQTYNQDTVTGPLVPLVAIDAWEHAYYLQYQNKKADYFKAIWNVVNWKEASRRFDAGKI
UniProt P32473: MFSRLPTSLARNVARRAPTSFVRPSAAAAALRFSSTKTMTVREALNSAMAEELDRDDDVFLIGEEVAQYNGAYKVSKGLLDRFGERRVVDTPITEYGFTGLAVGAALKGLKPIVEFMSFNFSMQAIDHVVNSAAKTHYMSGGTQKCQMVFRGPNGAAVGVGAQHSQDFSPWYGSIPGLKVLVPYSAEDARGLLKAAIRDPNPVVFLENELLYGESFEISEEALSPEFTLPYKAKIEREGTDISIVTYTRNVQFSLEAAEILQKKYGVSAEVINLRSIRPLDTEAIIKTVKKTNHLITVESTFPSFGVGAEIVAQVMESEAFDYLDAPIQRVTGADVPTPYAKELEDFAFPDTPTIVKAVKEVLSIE
UniProt Q12329: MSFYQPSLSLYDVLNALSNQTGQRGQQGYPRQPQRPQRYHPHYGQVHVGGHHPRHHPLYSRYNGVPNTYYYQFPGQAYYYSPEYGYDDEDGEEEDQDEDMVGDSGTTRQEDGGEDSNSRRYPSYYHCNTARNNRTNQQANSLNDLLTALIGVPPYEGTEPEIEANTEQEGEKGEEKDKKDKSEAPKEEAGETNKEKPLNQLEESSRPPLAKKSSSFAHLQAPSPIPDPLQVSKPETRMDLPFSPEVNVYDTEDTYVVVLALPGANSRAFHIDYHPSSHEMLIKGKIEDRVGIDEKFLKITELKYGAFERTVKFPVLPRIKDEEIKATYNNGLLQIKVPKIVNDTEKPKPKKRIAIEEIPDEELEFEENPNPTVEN
UniProt P34227: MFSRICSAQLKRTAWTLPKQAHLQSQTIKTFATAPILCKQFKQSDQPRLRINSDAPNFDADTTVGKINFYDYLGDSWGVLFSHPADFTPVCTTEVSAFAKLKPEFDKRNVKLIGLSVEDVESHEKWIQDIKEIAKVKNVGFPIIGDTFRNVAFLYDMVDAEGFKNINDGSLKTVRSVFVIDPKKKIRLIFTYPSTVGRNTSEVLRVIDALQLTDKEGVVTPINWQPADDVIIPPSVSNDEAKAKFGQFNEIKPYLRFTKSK
UniProt P08067: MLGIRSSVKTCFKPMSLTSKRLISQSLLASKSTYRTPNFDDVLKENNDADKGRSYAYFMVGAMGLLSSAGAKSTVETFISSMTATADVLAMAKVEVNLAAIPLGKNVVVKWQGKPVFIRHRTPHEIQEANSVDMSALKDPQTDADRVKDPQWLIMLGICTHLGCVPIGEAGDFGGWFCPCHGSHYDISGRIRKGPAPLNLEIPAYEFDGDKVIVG
UniProt P19882: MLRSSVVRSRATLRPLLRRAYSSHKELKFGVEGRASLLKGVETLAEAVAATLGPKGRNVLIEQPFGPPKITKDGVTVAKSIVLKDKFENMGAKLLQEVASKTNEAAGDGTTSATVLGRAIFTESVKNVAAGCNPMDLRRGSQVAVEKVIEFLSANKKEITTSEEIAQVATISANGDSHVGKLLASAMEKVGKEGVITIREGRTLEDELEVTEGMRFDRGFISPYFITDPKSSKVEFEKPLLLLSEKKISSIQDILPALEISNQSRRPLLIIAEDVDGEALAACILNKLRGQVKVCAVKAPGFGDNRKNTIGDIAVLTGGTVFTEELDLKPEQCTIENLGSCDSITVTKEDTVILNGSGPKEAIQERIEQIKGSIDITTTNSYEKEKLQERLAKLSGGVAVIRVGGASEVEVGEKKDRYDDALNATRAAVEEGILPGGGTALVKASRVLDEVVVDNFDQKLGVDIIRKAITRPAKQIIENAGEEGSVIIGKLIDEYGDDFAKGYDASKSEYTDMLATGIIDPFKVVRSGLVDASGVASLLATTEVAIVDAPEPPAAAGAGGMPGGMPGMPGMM
UniProt P00358: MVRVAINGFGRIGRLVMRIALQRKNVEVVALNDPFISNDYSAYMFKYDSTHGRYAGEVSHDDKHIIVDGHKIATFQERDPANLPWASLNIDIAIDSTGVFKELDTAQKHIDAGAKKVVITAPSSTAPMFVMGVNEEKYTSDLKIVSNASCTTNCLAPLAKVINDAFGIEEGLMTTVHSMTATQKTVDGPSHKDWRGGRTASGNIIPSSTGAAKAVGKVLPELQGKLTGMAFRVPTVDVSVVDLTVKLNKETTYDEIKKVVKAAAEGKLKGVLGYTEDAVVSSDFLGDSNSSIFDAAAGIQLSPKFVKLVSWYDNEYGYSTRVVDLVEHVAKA
UniProt P39522: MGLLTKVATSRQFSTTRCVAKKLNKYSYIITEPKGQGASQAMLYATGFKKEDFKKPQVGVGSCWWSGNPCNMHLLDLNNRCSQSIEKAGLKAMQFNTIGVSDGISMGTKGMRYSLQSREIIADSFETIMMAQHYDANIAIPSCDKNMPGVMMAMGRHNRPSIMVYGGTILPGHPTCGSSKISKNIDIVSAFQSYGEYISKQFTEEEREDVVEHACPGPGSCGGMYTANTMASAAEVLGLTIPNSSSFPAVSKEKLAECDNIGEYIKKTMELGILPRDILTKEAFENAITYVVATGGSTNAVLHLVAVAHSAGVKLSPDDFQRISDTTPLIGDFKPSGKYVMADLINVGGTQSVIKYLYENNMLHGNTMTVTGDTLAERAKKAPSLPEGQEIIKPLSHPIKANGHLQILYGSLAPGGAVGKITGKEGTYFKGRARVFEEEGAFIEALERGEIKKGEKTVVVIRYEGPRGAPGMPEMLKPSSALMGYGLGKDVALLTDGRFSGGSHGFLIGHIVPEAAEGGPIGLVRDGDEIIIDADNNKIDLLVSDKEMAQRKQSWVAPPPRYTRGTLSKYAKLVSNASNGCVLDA
UniProt P23180: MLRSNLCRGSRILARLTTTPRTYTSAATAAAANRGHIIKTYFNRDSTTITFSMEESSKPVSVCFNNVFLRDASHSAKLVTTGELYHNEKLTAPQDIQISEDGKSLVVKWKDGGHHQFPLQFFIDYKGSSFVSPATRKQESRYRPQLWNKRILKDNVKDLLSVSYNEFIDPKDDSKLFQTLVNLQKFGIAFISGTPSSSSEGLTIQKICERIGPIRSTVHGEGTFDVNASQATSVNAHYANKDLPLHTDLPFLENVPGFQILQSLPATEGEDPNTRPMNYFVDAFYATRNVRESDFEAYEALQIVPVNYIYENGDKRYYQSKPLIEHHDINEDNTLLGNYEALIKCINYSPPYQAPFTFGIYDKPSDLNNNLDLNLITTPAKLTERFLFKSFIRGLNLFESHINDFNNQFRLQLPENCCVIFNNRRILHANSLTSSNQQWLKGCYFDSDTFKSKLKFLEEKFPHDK
UniProt P04039: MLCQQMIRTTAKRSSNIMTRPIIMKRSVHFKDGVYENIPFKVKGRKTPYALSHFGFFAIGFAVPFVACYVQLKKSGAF
UniProt P35191: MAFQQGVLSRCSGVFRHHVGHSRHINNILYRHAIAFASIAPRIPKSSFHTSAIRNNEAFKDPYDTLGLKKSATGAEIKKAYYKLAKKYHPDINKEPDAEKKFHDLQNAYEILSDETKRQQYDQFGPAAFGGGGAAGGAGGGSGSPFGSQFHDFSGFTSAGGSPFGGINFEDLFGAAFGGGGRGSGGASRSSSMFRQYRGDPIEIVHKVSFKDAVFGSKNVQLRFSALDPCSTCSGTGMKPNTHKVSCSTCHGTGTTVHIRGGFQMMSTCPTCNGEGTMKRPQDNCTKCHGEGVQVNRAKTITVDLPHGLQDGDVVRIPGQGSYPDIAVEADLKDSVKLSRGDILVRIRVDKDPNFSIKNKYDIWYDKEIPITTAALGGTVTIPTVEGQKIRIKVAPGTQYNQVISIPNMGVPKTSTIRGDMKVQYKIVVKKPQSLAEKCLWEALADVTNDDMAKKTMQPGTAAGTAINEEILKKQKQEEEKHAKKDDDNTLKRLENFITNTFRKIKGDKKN
UniProt Q12349: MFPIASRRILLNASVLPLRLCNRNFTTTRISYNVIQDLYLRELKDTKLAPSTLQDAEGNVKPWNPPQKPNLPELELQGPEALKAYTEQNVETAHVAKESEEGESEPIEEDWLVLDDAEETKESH
UniProt P32799: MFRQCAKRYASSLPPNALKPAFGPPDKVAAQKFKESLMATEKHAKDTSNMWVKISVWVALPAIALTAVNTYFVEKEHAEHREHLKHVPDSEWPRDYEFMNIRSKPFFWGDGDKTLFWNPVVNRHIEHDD

binding [1]	Molecule	other results
binds	Mam33 (from UniProt P40513)	
binds	Arg5,6 (from UniProt Q01217)	
binds	Sod2 (from UniProt P00447)	
binds	Pdb1 (from UniProt P32473)	
binds	small heat shock protein Hsp42 (from UniProt Q12329 1-375)	binding [2]: no binding
binds	Prx1 (from UniProt P34227)	
binds	Rip1 (from UniProt P08067)	
binds	Hsp60 (from UniProt P19882)	
binds	Tdh2 (from UniProt P00358 1-332)	
binds	Ilv3 (from UniProt P39522)	
binds	Aim17 (from UniProt P23180)	
binds	Cox8 (from UniProt P04039)	
binds	Mdj1 (from UniProt P35191)	
binds	Atp14 (from UniProt Q12349)	
binds	Cox13 (from UniProt P32799)	
	Sse1 (protein, UniProt P32589 1-693) MSTPFGLDLGNNNSVLAVARNRGIDIVVNEVSNRSTPSVVGFGPKNRYLGETGKNKQTSNIKNTVANLKRIIGLDYHHPDFEQESKHFTSKLVELDDKKTGAEVRFAGEKHVFSATQLAAMFIDKVKDTVKQDTKANITDVCIAVPPWYTEEQRYNIADAARIAGLNPVRIVNDVTAAGVSYGIFKTDLPEGEEKPRIVAFVDIGHSSYTCSIMAFKKGQLKVLGTACDKHFGGRDFDLAITEHFADEFKTKYKIDIRENPKAYNRILTAAEKLKKVLSANTNAPFSVESVMNDVDVSSQLSREELEELVKPLLERVTEPVTKALAQAKLSAEEVDFVEIIGGTTRIPTLKQSISEAFGKPLSTTLNQDEAIAKGAAFICAIHSPTLRVRPFKFEDIHPYSVSYSWDKQVEDEDHMEVFPAGSSFPSTKLITLNRTGDFSMAASYTDITQLPPNTPEQIANWEITGVQLPEGQDSVPVKLKLRCDPSGLHTIEEAYTIEDIEVEEPIPLPEDAPEDAEQEFKKVTKTVKKDDLTIVAHTFGLDAKKLNELIEKENEMLAQDKLVAETEDRKNTLEEYIYTLRGKLEEEYAPFASDAEKTKLQGMLNKAEEWLYDEGFDSIKAKYIAKYEELASLGNIIRGRYLAKEEEKKQAIRSKQEASQMAAMAEKLAAQRKAEAEKKEEKKDTEGDVDMD	binding [2]: no binding; binding [3]: binds
	J-domain protein Sis1 (protein, UniProt P25294 1-352) MVKETKLYDLLGVSPSANEQELKKGYRKAALKYHPDKPTGDTEKFKEISEAFEILNDPQKREIYDQYGLEAARSGGPSFGPGGPGGAGGAGGFPGGAGGFSGGHAFSNEDAFNIFSQFFGGSSPFGGADDSGFSFSSYPSGGGAGMGGMPGGMGGMHGGMGGMPGGFRSASSSPTYPEEETVQVNLPVSLEDLFVGKKKSFKIGRKGPHGASEKTQIDIQLKPGWKAGTKITYKNQGDYNPQTGRRKTLQFVIQEKSHPNFKRDGDDLIYTLPLSFKESLLGFSKTIQTIDGRTLPLSRVQPVQPSQTSTYPGQGMPTPKNPSQRGNLIVKYKVDYPISLNDAQKRAIDENF	binding [3]: binds
	small heat shock protein Hsp26 (protein, UniProt P15992 1-214) MSFNSPFFDFFDNINNEVDAFNRLLGEGGLRGYAPRRQLANTPAKDSTGKEVARPNNYAGALYDPRDETLDDWFDNDLSLFPSGFGFPRSVAVPVDILDHDNNYELKVVVPGVKSKKDIDIEYHQNKNQILVSGEIPSTLNEESKDKVKVKESSSGKFKRVITLPDYPGVDADNIKADYANGVLTLTVPKLKPQKDGKNHVKKIEVSSQESWGN	binding [2]: no binding; binding [3]: binds
	yeast prion protein Rnq1 (protein, UniProt P25367 1-405) MDTDKLISEAESHFSQGNHAEAVAKLTSAAQSNPNDEQMSTIESLIQKIAGYVMDNRSGGSDASQDRAAGGGSSFMNTLMADSKGSSQTQLGKLALLATVMTHSSNKGSSNRGFDVGTVMSMLSGSGGGSQSMGASGLAALASQFFKSGNNSQGQGQGQGQGQGQGQGQGQGSFTALASLASSFMNSNNNNQQGQNQSSGGSSFGALASMASSFMHSNNNQNSNNSQQGYNQSYQNGNQNSQGYNNQQYQGGNGGYQQQQGQSGGAFSSLASMAQSYLGGGQTQSNQQQYNQQGQNNQQQYQQQGQNYQHQQQGQQQQQGHSSSFSALASMASSYLGNNSNSNSSYGGQQQANEYGRPQQNGQQQSNEYGRPQYGGNQNSNGQHESFNFSGNFSQQNNNGNQNRY	binding [4]: binds
